Patent US20250249120A1 (CHILDREN S HEALTH CARE D B A CHILDREN S MINNESOTA, published 2025)
No constants are given. Whether binding was seen depends on the method and setting. Some entries that bind do so weakly or less than the wild type.

Legend:
[1] = molecular target: T1, CD179a (VpreB1) component of the pre-BCR surrogate light chain, on B-ALL cells (human) (UniProt P12018); assay: flow cytometry on Nalm6, REH, SEM, PDX B1 and PDX B2 cells
T1 sequence (looked up): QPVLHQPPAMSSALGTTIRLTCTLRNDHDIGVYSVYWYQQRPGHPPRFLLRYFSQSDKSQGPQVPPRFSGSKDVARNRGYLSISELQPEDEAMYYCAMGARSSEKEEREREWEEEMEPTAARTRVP

[2] = molecular target: T1, CD179a (VpreB1) component of the pre-BCR surrogate light chain, on B-ALL cells (human); assay: flow cytometry, 36 Day 0 primary B-ALL samples
[3] = molecular target: T1, CD179a (VpreB1) component of the pre-BCR surrogate light chain, on B-ALL cells (human); assay: flow cytometry, primary B-ALL Day 1/Day 28 pairs
[4] = molecular target: T1, CD179a (VpreB1) component of the pre-BCR surrogate light chain, on B-ALL cells (human); assay: flow cytometry, end-induction samples, COG MRD Panel
[5] = molecular target: T1, CD179a (VpreB1) component of the pre-BCR surrogate light chain, on B-ALL cells (human); assay: flow cytometry, primary B-ALL samples

Measured: binding

B1: recombinant FITC-conjugated mAb against CD179a (CD179a IgG1/kappa construct) (antibody, V domains shown)
VH: EVQLVESGGGLVKPGGSLRLSCAASGFTFSNFEMNWVRQAPGKGLEWVSGISSNGRYINYADSVKGRFTISRDNAKNSLYLQMNSLRAEDTAVYYCARVVDFDQDYNGFDYWGQGTLVTVSS
VL: DIQLTQSPSFLSASVGDRVTITCRASQGISTDLNWYQQKPGKAPKLLIYAASNLESGVPSRFSGSGSGTEFTLTISSLQPEDFATYYCQQSYNWPYTFGGGTKVEIKR
modifications: FITC label (Abcam conjugation kit), labelled residues not stated
binds: all assays above
